Measured values published in patent publication US20190023785A1 (SHANGHAI JIAOTONG UNIVERSITY, published 2019).
No constants are given. Whether binding was seen depends on the method and setting. Some binding calls cover weakened binding; strength is not graded here. Tags and fused reporters may be left off the sequences shown.

The chains behind the UniProt entries cited, without tags or fusion partners. Where a name states a change or a piece, a line headed by the entry shows the natural chain unless it says otherwise.
UniProt P61769: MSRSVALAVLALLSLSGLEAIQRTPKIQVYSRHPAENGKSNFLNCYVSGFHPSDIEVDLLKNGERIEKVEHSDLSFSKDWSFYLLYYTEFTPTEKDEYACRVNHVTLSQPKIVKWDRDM

Target: T1, hFcRn&b2M protein (human, UniProt P61769 21-119, limits assumed)
T1 construct: also called hFcRn&β2M; human FcRn protein
Assay: SPR (Biacore), hFcRn on CM5 chip, 200 nM analyte, pH 6.0 and pH 7.4

binding: binds
B1: fusion protein G12 (GLP1 (AA7-36; A8G, G22E, R36G)-linker-FnAb12 scFv) (protein)
chain: HGEGTFTSDVSSYLEEQAAKEFIAWLVKGGGGGGGSGGGGSGGGGSDIQLTQSPSSLSASVGDRVTLTCQATQDIDNNLNWYQQKPGKAPKLLIYDASNLETGVPSRFSGSGSGTDFTFTISDLQPEDVATYYCQQYYNLPLTFGGGTKVDIKRSRGGGGSGGGGSGGGGSLEMAEVQLVQSGAEVKKPGASVKVSCKASGYTFTSYDINWVRQATGQGLEWMGWMNPNSGNTGYAQKFQGRVTMTRNTSISTAYMELSSLRSEDTAVYYCARGVDLGDGWGQGTLVTVSS
